doi:10.1101/455873
These are yes or no findings as the source states them, for the method shown. Binding seen in cells or lysates may run through a third protein. Here binding means that the protein was enriched with, or labelled near, the bait; the list need not be complete. Sequences can lack the tags named with a protein.

Chains of the proteins cited; added tags and fusions are not shown. Lines headed by an entry give the natural chain unless they say otherwise; changes in a name come on top. A line that says so, or that is headed by a name, gives the form on record, which may keep a tag or linker.
UniProt P40460: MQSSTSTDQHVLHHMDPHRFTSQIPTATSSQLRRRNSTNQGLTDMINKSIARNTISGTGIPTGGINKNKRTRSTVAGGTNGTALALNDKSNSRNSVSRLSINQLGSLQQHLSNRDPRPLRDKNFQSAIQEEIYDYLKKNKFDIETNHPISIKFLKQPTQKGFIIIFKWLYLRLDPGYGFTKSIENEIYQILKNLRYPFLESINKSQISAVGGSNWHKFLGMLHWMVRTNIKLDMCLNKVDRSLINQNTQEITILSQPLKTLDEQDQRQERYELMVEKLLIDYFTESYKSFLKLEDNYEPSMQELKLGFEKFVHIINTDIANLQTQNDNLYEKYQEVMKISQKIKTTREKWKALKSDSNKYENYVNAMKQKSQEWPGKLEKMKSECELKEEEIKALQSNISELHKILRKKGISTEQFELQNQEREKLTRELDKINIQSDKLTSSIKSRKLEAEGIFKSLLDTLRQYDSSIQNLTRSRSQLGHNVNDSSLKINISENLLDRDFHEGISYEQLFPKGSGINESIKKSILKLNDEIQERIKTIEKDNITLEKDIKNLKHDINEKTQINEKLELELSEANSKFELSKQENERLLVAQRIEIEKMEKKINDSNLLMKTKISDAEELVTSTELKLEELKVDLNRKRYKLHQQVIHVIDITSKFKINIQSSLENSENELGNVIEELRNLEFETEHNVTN
Ndc80-7D-3xGFP (P40460, form named): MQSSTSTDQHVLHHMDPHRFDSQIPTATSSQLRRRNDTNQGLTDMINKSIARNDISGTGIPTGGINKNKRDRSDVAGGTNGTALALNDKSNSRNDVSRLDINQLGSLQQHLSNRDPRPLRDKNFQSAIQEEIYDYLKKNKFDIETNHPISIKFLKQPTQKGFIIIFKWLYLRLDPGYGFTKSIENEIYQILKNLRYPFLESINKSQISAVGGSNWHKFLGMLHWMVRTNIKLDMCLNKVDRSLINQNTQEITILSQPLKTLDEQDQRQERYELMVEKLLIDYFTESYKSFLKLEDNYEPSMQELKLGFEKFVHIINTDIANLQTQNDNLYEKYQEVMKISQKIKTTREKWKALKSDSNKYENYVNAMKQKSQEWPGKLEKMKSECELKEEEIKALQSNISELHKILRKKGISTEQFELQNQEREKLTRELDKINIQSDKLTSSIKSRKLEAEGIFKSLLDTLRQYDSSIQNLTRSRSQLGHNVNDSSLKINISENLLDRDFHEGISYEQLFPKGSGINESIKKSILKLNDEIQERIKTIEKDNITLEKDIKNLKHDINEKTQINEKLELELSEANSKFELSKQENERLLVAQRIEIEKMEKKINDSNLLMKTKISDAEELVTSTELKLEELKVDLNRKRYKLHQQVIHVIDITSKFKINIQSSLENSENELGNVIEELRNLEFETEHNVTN

Molecular target: T1, Dsn1-3xFLAG (S. cerevisiae (endogenous in budding yeast)) (UniProt P40568)
T1 sequence: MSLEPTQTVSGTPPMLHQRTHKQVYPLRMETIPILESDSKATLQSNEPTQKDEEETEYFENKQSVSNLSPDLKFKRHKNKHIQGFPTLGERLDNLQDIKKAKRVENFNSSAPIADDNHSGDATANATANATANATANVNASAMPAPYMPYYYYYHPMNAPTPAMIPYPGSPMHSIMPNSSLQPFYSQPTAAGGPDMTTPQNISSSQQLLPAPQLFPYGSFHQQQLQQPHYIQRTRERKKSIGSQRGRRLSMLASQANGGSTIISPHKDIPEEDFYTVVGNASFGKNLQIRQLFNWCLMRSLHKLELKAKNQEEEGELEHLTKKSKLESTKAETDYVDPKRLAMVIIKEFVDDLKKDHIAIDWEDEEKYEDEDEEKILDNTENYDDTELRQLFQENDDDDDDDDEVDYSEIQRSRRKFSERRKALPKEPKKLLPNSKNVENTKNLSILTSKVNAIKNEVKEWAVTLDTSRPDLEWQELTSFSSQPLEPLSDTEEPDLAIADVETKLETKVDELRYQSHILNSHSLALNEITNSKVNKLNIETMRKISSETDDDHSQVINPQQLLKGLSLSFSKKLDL
Experiment: affinity purification with mass spectrometry

binding	Substance
binds	Ndc80-3xGFP (Ndc80-WT) (from UniProt P40460 1-691)
binds	Ndc80-7D-3xGFP (from UniProt P40460 1-691)
